Reference: patent US20140287513
The exact form of at least one protein or probe is not confirmed. For some assays here: The comparison behind a weaker result is the experiment's own reference, which may not be listed here.

Tests used:
[1] = system: piggyBac transposase R245A (Trichoplusia ni); assay: enzyme reaction in vitro; conditions: slight decrease in hairpin resolving and target joining; purified recombinant protein; protein details: C-terminal His-tag (pET22b); label: 5'-32P; folded or branched DNA
[2] = system: piggyBac transposase R275A/R277A (Trichoplusia ni); assay: enzyme reaction in vitro; conditions: slightly decreased hairpin resolving; target joining defective; purified recombinant protein; protein details: C-terminal His-tag (pET22b); label: 5'-32P; folded or branched DNA
[3] = system: piggyBac transposase R341A (Trichoplusia ni); assay: enzyme reaction in vitro; conditions: slight decrease in hairpin resolving and target joining; purified recombinant protein; protein details: C-terminal His-tag (pET22b); label: 5'-32P; folded or branched DNA
[4] = system: piggyBac transposase R372A/K375A (Exc+Int-) (Trichoplusia ni); assay: enzyme reaction in vitro; conditions: better hairpin resolving than WT; target joining defective; purified recombinant protein; protein details: C-terminal His-tag (pET22b); label: 5'-32P; folded or branched DNA
[5] = system: piggyBac transposase R388A (Trichoplusia ni); assay: enzyme reaction in vitro; conditions: dramatic decrease in hairpin opening; target joining defective; purified recombinant protein; protein details: C-terminal His-tag (pET22b); label: 5'-32P; folded or branched DNA
[6] = system: piggyBac transposase S351E (Trichoplusia ni); assay: enzyme reaction in vitro; conditions: slightly decreased hairpin resolving; target joining defective; purified recombinant protein; protein details: C-terminal His-tag (pET22b); label: 5'-32P; folded or branched DNA
[7] = system: piggyBac transposase WT (Trichoplusia ni); assay: enzyme reaction in vitro; conditions: hairpin resolving; reference; purified recombinant protein; protein details: C-terminal His-tag (pET22b); label: 5'-32P; folded or branched DNA
[8] = system: piggyBac transposase WT (Trichoplusia ni); assay: activity assay; conditions: strand transfer assay; reference; purified recombinant protein; protein details: C-terminal His-tag (pET22b); label: 5'-32P on both strands

Sequence | activity on this sequence [1] | activity on this sequence [2] | activity on this sequence [3] | activity on this sequence [4] | activity on this sequence [5] | activity on this sequence [6] | activity on this sequence [7] | activity on this sequence [8]
CATGCGTCAATTTTACGCAGACTATCTTTCTAGGGTTAACCCTAGAAAGATAGTCTGCGTAAAATTGACGCATG [piggyBac end oligo with TTAA hairpin (PGB40)] | less active | less active | less active | active | less active | less active | active | –
CCCTAGAAAGATAATCATATTGTGACGTACGTTAAAGATAATCATGCGTAAAATTGACGCATGTGTTTT / TTAAAACACATGCGTCAATTTTACGCATGATTATCTTTAACGTACGTCACAATATGATTATCTTTCTAGGG [piggyBac R-end duplex PGB18/PGB19] | – | – | – | – | – | – | – | active
